The name of at least one read-out is uncertain.
Test system: White flies, Trialeurodes vaporarium—larvae
Assay: White fly larvae on bean, boom sprayer application (IRAC no 015 adapted), mortality
Assay type: in vivo
Settings: example 4, all assessment days
Text: White flies, Trialeurodes vaporarium—larvae • Study based on IRAC no 015 methods, stage and application method adapted • Plant: bean • Application: On the petri dish with larvae with a boom sprayer apparatus • Assessment of mortality at 7, 9 and 14 days after application • a.i. refers to active ingredient
LD stands for “Lethal Dose”. LD50 is the amount of an ingested substance that kills 50 percent of a test sample and […] is the lethal dose that kills 90 percent of the test sample.

CN(C)C1CSSSC1.Cl [Thiocyclam HCl, N,N-dimethyl-1,2,3-trithian-5-ylamine hydrochloride]
LD50 compared to the other insecticides: outperforms the other insecticides significantly
